No constants are given. Whether binding was seen depends on the method and setting. Some results given as binding are weak or reduced against the parent protein; the word gives no strength.
T1: human NT5E expressed on MDA-MB-231 cells (human) (UniProt P21589)
T1 sequence (looked up): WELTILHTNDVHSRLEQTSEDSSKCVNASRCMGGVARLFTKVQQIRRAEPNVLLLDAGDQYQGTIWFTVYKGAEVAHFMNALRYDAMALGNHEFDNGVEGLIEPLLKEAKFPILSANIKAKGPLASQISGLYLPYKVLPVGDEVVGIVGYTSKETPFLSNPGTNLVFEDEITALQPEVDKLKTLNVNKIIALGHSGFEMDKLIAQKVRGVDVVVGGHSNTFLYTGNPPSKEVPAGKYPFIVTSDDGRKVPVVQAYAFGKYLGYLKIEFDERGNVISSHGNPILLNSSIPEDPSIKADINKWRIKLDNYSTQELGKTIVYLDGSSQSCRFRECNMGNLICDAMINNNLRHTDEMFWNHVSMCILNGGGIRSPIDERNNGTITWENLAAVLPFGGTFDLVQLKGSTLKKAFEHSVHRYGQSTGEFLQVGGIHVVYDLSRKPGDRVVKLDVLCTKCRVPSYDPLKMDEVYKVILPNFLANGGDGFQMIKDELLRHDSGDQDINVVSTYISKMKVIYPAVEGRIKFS

T2: NT5E dimer in closed state (cryo-EM complex) (Homo sapiens (Human)) (UniProt P21589)
T2 sequence: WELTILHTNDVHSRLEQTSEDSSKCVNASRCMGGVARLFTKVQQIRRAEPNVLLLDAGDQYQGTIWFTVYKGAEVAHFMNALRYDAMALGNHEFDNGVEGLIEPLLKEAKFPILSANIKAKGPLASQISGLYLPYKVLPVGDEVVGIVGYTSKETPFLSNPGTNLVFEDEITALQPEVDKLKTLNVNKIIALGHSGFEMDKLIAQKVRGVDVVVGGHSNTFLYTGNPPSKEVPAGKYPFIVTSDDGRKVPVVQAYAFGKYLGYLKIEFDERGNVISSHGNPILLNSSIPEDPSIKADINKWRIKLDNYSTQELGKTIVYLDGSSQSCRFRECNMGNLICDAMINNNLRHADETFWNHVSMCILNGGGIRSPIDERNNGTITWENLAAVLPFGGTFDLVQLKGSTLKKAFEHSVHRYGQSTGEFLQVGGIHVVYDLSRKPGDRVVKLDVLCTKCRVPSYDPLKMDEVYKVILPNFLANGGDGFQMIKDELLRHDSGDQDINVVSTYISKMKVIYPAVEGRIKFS


How the values were obtained:
[1] = target: T1, human NT5E expressed on MDA-MB-231 cells (human); assay: flow cytometry on MDA-MB-231 cells with fixed adenosine, MFI normalised to Medi9447 IgG; Fab concentration not given
[2] = target: T1, human NT5E expressed on MDA-MB-231 cells (human); assay: flow cytometry on MDA-MB-231 cells, fixed nucleotide concentrations
[3] = target: T1, human NT5E expressed on MDA-MB-231 cells (human); assay: flow cytometry on MDA-MB-231 cells, fixed 0.1 uM ATP
[4] = target: T1, human NT5E expressed on MDA-MB-231 cells (human); assay: flow cytometry on MDA-MB-231 cells, ATP-free or 1 mM ATP
[5] = target: T1, human NT5E expressed on MDA-MB-231 cells (human); assay: flow cytometry on MDA-MB-231 cells with fixed ATP, MFI normalised to Medi9447 IgG; Fab concentration not given
[6] = target: T1, human NT5E expressed on MDA-MB-231 cells (human); assay: flow cytometry on MDA-MB-231 cells
[7] = target: T1, human NT5E expressed on MDA-MB-231 cells (human); assay: flow cytometry on MDA-MB-231 cells with fixed AMP, MFI normalised to Medi9447 IgG; Fab concentration not given
[8] = target: T1, human NT5E expressed on MDA-MB-231 cells (human); assay: flow cytometry on MDA-MB-231 cells, fixed 10 uM ATP
[9] = target: T1, human NT5E expressed on MDA-MB-231 cells (human); assay: flow cytometry on MDA-MB-231 cells, fixed 1 uM ATP
[10] = target: T1, human NT5E expressed on MDA-MB-231 cells (human); assay: flow cytometry on MDA-MB-231 cells, fixed 5 uM ATP
[11] = target: T1, human NT5E expressed on MDA-MB-231 cells (human); assay: flow cytometry on MDA-MB-231 cells with fixed AMPCP, MFI normalised to Medi9447 IgG; Fab concentration not given
[12] = target: T1, human NT5E expressed on MDA-MB-231 cells (human); assay: flow cytometry on MDA-MB-231 cells, fixed 100 uM ATP
[13] = target: T1, human NT5E expressed on MDA-MB-231 cells (human); assay: flow cytometry on MDA-MB-231 cells with fixed ATP-γ-S, MFI normalised to Medi9447 IgG; Fab concentration not given
[14] = target: T1, human NT5E expressed on MDA-MB-231 cells (human); assay: flow cytometry on MDA-MB-231 cells with fixed ADP, MFI normalised to Medi9447 IgG; Fab concentration not given
[15] = target: T1, human NT5E expressed on MDA-MB-231 cells (human); assay: flow cytometry on MDA-MB-231 cells, no ATP
[16] = target: T1, human NT5E expressed on MDA-MB-231 cells (human); assay: flow cytometry on MDA-MB-231 cells, ATP-free
[17] = target: T2, NT5E dimer in closed state (cryo-EM complex) (Homo sapiens (Human)); assay: cryo-EM structure of the complex

binding [1] | binding [2] | binding [3] | binding [4] | binding [5] | binding [6] | binding [7] | binding [8] | binding [9] | binding [10] | binding [11] | binding [12] | binding [13] | binding [14] | binding [15] | binding [16] | binding [17] | Binder
binds | binds | binds | binds | binds | binds | binds | binds | binds | binds | binds | binds | binds | binds | binds | binds |  | 1789 Fab (Fab, V domains shown) VH: EVQLVESGGGLVQPGGSLRLSCAASGFNVSYSSIHWVRQAPGKGLEWVASISSSSGYTYYADSVKGRFTISADTSKNTAYLQMNSLRAEDTAVYYCARNYWGWYPFYYFAFDYWGQGTLVTV VL: DIQMTQSPSSLSASVGDRVTITCRASQSVSSAVAWYQQKPGKAPKLLIYSASSLYSGVPSRFSGSRSGTDFTLTISSLQPEDFATYYCQQGWDYPITFGQGTKVEIKR
 |  |  |  |  |  |  |  |  |  |  |  |  |  |  |  | binds | 1789 AM32 Fab (Fab, V domains shown) VH: EVQLVESGGGLVQPGGSLRLSCAASGFNVSYSSIHWVRQAPGKGLEWVARIRGNEGDTYYADSVKGRFTISADTSKNTAYLQMNSLRAEDTAVYYCARNYWGWYPFYYFAFDYWGQGTLVTV VL: DIQMTQSPSSLSASVGDRVTITCRASQSVSSAVAWYQQKPGKAPKLLIYSASSLYSGVPSRFSGSRSGTDFTLTISSLQPEDFATYYCQQGWDYPITFGQGTKVEIKR

Reference: patent US20260022186A1
